The list shows only some results of the screen, not a fair sample: it covers a few groups of compounds. Other doses and runs of a compound may be missing. T/C gives the treated animals as a percentage of the vehicle group. Some entries give survivors of the animals treated and no T/C: the source holds a T/C of zero for them, seemingly a mark for toxic or unscored doses. Some survivor counts are full or nearly so, which does not show that the dose was tolerated: survival well below the control is almost never listed, so the zero probably covers shortened survival too. Survivors were counted at the toxicity check, usually on the fifth day, unless a day is given; later deaths do not show. Schedule codes are those of the source, read here as Q, the interval in days (D) or hours (H), X, the number of doses. Some entries hold several experiments; their values stand side by side, smallest first. Where survival is the endpoint, this PubChem deposit counts one and a half times the control or more as active, and values a quarter to a half above the control carry no call in these data; other NCI protocols may use other cut-offs. Some T/C values carry the count of animals alive at the toxicity check (mostly the fifth day); without a count or a note in brackets, all were alive then.
System: BDF1 mice, P329 reticulum cell sarcoma ip, survival T/C
Assay: NCI In Vivo Anticancer Drug Screen. Data for tumor model P329 Reticulum Cell Sarcoma (intraperitoneal) in B6D2F1 (BDF1) mice
Conditions: T/C endpoint: median survival time, schedule: Q01DX010 (ip), vehicle: saline, higher T/C = longer survival
Protocol: The antitumor activity of compounds was measured in mice bearing transplantable tumors. Survival or tumor size were measured and the results are expressed as the measurement made in the treated group (T) divided by the measurement made in the vehicle treated control group (C). The tumor model used in this assay is P329 Reticulum Cell Sarcoma (intraperitoneal) in B6D2F1 (BDF1) mice

SMILES: CN(N=O)C(=N)N[N+](=O)[O-]
- T/C (dose: 8.0 mg/kg/injection): 130 and 138 % of control
- T/C (dose: 16.0 mg/kg/injection): 153 % of control
- survivor count (dose: 16.0 mg/kg/injection): 6 of 6
- survivor count (dose: 32.0 mg/kg/injection): 6 of 6
- survivor count (dose: 64.0 mg/kg/injection): 5 of 6 and 6 of 6

SMILES: Cc1[nH]c(=O)[nH]c(=O)c1N(CCCl)CCCl
- T/C (dose: 125.0 micrograms/kg/injection): 93 % of control
- T/C (dose: 250.0 micrograms/kg/injection): 96 % of control
- T/C (dose: 500.0 micrograms/kg/injection): 106 % of control
- T/C (dose: 1000.0 micrograms/kg/injection): 118 % of control

SMILES: NC1CCCCC1.O=P(O)(N(CCCl)CCCl)N1CC1
- T/C (dose: 1.25 mg/kg/injection): 107 % of control
- T/C (dose: 2.5 mg/kg/injection): 115 and 132 % of control
- T/C (dose: 5.0 mg/kg/injection): 119 [5 of 6 alive] and 125 % of control
- T/C (dose: 10.0 mg/kg/injection): 134 and 139 % of control
- T/C (dose: 20.0 mg/kg/injection): 130 % of control

SMILES: CC[C@@H](C)[C@@H]1NC(=O)/C(=C(\C)O)C1=O.c1ccc(CNCCNCc2ccccc2)cc1
- T/C (dose: 10.0 mg/kg/injection): 107 % of control
- T/C (dose: 14.0 mg/kg/injection): 103 % of control
- T/C (dose: 20.0 mg/kg/injection): 107 % of control
- T/C (dose: 30.0 mg/kg/injection): 107 % of control
